Patent CN111454365A
Results are given in words; binding and its absence hold for the method and conditions named. Some entries that bind do so weakly or less than the wild type.

Amino acid sequences for entries named in this document (tags omitted).
UniProt P52701: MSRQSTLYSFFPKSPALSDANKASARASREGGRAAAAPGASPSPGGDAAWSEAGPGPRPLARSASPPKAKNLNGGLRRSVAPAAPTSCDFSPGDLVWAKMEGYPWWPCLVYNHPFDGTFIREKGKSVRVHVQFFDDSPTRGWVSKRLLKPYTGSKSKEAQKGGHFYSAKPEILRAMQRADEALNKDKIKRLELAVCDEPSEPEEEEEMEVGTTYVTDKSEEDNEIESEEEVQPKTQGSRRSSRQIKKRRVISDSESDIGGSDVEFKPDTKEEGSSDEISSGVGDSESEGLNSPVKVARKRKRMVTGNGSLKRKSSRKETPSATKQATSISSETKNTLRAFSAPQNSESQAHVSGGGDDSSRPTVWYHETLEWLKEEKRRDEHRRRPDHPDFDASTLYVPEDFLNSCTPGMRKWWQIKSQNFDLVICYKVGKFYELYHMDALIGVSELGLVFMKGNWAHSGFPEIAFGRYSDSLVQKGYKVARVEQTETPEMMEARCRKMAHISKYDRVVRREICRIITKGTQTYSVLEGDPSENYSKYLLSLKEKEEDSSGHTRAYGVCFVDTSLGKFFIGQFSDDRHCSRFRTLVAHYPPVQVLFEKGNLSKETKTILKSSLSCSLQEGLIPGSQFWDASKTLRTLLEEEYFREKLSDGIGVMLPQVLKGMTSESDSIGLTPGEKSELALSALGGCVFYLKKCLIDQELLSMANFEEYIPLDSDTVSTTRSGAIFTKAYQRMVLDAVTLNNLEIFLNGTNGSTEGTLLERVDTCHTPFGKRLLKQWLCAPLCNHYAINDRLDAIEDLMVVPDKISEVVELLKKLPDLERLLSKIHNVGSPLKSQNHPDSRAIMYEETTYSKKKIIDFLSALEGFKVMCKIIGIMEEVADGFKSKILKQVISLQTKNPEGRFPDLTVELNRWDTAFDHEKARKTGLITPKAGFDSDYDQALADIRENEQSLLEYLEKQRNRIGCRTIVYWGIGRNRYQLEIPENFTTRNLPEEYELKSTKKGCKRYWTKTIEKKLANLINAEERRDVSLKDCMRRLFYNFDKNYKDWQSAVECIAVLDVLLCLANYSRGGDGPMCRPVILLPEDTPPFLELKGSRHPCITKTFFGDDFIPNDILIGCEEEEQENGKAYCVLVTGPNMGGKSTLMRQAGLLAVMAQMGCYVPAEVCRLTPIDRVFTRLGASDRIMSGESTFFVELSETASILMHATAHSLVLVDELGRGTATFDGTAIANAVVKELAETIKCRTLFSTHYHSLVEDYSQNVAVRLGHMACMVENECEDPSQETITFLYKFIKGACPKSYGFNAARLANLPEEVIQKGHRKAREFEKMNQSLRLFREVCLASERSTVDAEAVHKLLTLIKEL

What was measured:
[1] = target: MSH6蛋白 (endogenous, in tissue sections) (UniProt P52701); assay: immunohistochemistry on a chip of 30 normal tissues
[2] = target: MSH6蛋白 (endogenous, in tissue sections) (UniProt P52701); assay: immunohistochemistry, testis tissue section
[3] = target: MSH6蛋白 (endogenous, in tissue sections) (UniProt P52701); assay: immunohistochemistry, colon cancer tissue section
[4] = target: MSH6蛋白 (endogenous, in tissue sections) (UniProt P52701); assay: immunohistochemistry on tissue chips
[5] = target: MSH6蛋白 (endogenous, in tissue sections) (UniProt P52701); assay: immunohistochemistry, bladder cancer tissue section

- binding [1]: binds
- binding [2]: binds
- binding [3]: binds
- binding [4]: binds
- binding [5]: binds
B1: 抗MSH6蛋白单克隆抗体 (secreted by mouse hybridoma cell line AbM58060-20A2-PU, CGMCC NO.17492) (antibody, V domains shown)
VH: EVKLQESGPSLVKPGASVKISCKASGYKFSYSWMNWVKQRPGKGLEWIGWIYPAQDVTNYNGKFRDKATLTADISSSTAYMQLSGLTSEDSAVYFCVYHGGFLDFWGQGTTLTVSS
VL: DILMTQSPLSLSVTIGQPASISCKSSQSLLFSDGKTYLNWLQQRPGQSPKRLMYQVSRLDPGIPDRFSGSGSETDFTLKISRVEADDLAIYYCSQGSFYPQTFGGGTRLEIK
